# Results from publication PMC7032732.
# Biological target: T1, HA-Cdc4 (cdc4Δ::HA-CDC4 strain YMB10217) (S. cerevisiae) (UniProt P07834)
# T1 sequence: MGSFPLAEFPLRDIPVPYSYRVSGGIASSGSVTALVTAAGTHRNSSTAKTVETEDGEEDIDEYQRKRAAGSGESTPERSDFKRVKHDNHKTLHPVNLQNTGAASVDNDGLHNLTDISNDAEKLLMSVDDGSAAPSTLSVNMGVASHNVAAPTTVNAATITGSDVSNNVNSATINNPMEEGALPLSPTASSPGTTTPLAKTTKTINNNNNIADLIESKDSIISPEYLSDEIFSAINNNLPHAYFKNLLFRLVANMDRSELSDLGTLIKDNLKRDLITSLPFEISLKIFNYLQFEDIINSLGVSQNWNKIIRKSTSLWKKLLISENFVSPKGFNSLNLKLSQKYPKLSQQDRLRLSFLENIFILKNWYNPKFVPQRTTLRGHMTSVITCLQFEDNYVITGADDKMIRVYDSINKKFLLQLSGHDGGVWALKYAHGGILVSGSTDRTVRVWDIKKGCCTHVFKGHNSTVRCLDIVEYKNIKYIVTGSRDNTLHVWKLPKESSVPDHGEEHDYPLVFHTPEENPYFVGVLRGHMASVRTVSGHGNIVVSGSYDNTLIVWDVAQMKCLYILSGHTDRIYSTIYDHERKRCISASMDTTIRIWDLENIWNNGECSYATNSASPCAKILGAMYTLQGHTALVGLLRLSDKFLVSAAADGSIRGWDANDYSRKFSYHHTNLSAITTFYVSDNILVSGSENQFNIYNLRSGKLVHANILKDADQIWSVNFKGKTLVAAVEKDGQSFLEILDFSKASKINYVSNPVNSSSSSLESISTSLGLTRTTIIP
# Assay: co-IP; IP with anti-HA agarose from whole cell extracts of yeast grown in selective glucose medium at 25°C; all tagged proteins from their native promoters; extraction buffer 40mM Hepes pH7.5, 350mM NaCl, 0.1% Tween, 10% glycerol; 4°C overnight; WT strains, also cdc4-1 (Met30 with Cse4 not affected) and met30-6 (Cdc4 with Cse4 greatly reduced, restored by plasmid-borne MET30 or met30ΔD)
row,binding,Substance
1,binds,"Myc-met30ΔD (Δ124–182 aa, pMB1830) (S. cerevisiae) (domain or fragment)"
2,binds,"Myc-met30ΔF-box (Δ187–227 aa, pK680) (S. cerevisiae) (domain or fragment)"

# These are yes or no findings as the source states them, for the method shown. Binding seen in cells or lysates may run through a third protein. A result given as binding can be weak or reduced; the word gives no strength. Sequences can lack the tags named with a protein.
